# Primary screen of a compound library

By UniProt entry, the sequences of proteins in these tests, tags left out.
UniProt E9BF75, entry or part of it: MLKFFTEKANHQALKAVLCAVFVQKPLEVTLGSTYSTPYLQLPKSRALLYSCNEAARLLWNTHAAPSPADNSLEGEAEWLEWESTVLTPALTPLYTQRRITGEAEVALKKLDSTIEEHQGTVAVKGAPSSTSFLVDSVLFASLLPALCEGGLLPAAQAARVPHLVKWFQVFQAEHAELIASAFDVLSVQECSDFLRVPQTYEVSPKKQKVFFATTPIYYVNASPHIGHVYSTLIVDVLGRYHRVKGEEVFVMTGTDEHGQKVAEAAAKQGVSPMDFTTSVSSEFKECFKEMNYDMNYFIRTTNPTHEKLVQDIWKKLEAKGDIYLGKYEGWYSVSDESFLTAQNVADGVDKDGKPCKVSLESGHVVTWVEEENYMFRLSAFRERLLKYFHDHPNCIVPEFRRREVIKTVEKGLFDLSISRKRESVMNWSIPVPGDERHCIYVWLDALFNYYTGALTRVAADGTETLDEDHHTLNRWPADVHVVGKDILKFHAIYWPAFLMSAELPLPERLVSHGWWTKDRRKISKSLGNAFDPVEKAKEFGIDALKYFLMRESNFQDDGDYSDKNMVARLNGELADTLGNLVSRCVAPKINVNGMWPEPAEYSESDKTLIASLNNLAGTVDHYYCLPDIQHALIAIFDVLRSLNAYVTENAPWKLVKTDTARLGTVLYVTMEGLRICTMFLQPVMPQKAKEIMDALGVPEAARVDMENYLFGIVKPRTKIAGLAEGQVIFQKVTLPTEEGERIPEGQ

Measurements from “University of Dundee, Small-Polar-MMV Screening Library” (2021), ChEMBL document CHEMBL3988442.

Results are percentages, as filed.
How 0% and 100% were set is not recorded. Most values in the screen are low, and negative values occur.
This is an unselected part of the compounds tested.

LdMetRS: 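Primary screen of methionyl-tRNA synthetase; the read-out is not stated. Target: Methionyl-tRNA synthetase (putative), Leishmania donovani (UniProt E9BF75). The test concentration is not given. Values are per cent inhibition. About 68,000 compounds were tested under these conditions; 0.035% (about 24) showed 50% or more at least once.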
Mtb heat-shock: 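Assay on Mycobacterium tuberculosis, filed only as a heat shock assay from Cornell; the read-out is not stated. The concentration is filed as 10 mM, unlikely as a test dose, so the dose is not known. Direction is inferred from retests: higher values go with stronger inhibition. Size under these conditions: about 69,000 compounds, about 930 of them at 50% or above in at least one test.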

{"compound": "COCc1ccc(CN2CCC(O)(Cn3ccc4ncccc43)CC2)o1", "LdMetRS": 8.711}
{"compound": "CCN(CC)CCCNc1nc(C)nc2c1CCN(C)C2.O=C(O)CC(O)(CC(=O)O)C(=O)O", "Mtb heat-shock": -8.72}
{"compound": "c1ccc(Cc2nc(CNC3CCC4(CCNCC4)CC3)no2)cc1", "LdMetRS": 10.9, "Mtb heat-shock": 1.715}
{"compound": "CC(C)CN1C(=O)CO[C@@H]2CN(C(=O)CC(F)(F)F)C[C@H]21", "LdMetRS": 14.19}
{"compound": "O=C(NCCNC(=O)c1scnc1Cl)c1ccccc1", "LdMetRS": 18.88, "Mtb heat-shock": -11.09}
{"compound": "COc1c(C)cnc(CSc2nnc(N)s2)c1C", "LdMetRS": 22.81, "Mtb heat-shock": 31.92}
{"compound": "NC(=O)c1ccc(OCC(=O)N2CCCC2c2ccc[nH]2)cc1", "stereo": "stereo unspecified", "LdMetRS": 15.49, "Mtb heat-shock": -1.135}
{"compound": "O=C(O)C(F)(F)F.O=C(O)C(F)(F)F.[H][C@]12CCN(c3ncc(F)cn3)[C@@]1([H])CC[C@@H](COCc1ccccn1)O2", "Mtb heat-shock": -8.586}
{"compound": "CC(C)N1CCC(Cc2cncc(-c3ccccc3C(=O)O)n2)CC1", "LdMetRS": 12.89, "Mtb heat-shock": -5.129}
{"compound": "CN(C1CCCCC1)S(=O)(=O)NCC1Cc2ccccc2O1", "stereo": "stereo unspecified", "LdMetRS": 8.659, "Mtb heat-shock": 6.435}
{"compound": "Cn1cccc1C(=O)N1C[C@H]2CN(Cc3cccs3)C[C@H]2C1", "LdMetRS": 13.45}
{"compound": "CCS(=O)(=O)N1CCCC(Cc2cnccn2)C1", "stereo": "stereo unspecified", "LdMetRS": 4.471, "Mtb heat-shock": -6.164}
{"compound": "CN(C)CCNCCC(Cc1ccccc1)C1CCOC(C)(C)C1.O=C(O)C(=O)O", "stereo": "stereo unspecified", "Mtb heat-shock": -22.2}
{"compound": "CN(CCCN1CCOCC1)[C@@H]1c2ccccc2C2(CCNCC2)[C@H]1O", "LdMetRS": 7.311, "Mtb heat-shock": -17.61}
{"compound": "COC(=O)NCC1CCC2(CCNCC2)O1", "stereo": "stereo unspecified", "LdMetRS": 6.667}
{"compound": "C[C@@H]1C[C@H]2CN(C(=O)C3=CCCCC3)C[C@H]2O1", "LdMetRS": 10}
{"compound": "O=C(O)C(F)(F)F.[H][C@]12CN(CC(C)C)C[C@@]1([H])S(=O)(=O)CC[C@@H]2C(=O)NCC(C)C", "Mtb heat-shock": -21.92}
{"compound": "Cc1nc(N2CCCC2)nc2c1CN(C(=O)N(C)C)CC2", "LdMetRS": 11.22, "Mtb heat-shock": -38.76}
{"compound": "O=C(O)C(F)(F)F.O=C(O)C(F)(F)F.[H][C@@]12COC[C@]1(COc1cccnc1)CN(Cc1cccc(OC)c1)C2", "Mtb heat-shock": -31.45}
{"compound": "CCn1ncc(Nc2[nH]cnc3nc(C)nc2-3)c1C", "LdMetRS": 14.21, "Mtb heat-shock": -1.832}
{"compound": "CCO[C@H]1CO[C@@]2(CCCN(C(=O)c3ccc(OC)c(F)c3)C2)C1", "LdMetRS": 0.7092, "Mtb heat-shock": 3.507}
{"compound": "CN(C)CCNC(=O)c1nc2c(o1)CN(C(=O)c1cccnc1)C2", "LdMetRS": 8.148}
{"compound": "O[C@@H]1C[C@@H](c2nc(Cc3ccccc3)no2)N(Cc2ncc[nH]2)C1", "LdMetRS": 4.945, "Mtb heat-shock": -31.95}
{"compound": "COCCC(=O)N1CCC(c2cc3ncc(C)nc3[nH]2)CC1", "LdMetRS": 13.55, "Mtb heat-shock": 5.089}
{"compound": "COc1ccc(-c2nc(CSC3CCCCNC3=O)co2)cc1", "stereo": "stereo unspecified", "LdMetRS": -2.005, "Mtb heat-shock": 6.731}
{"compound": "CCN(CC(=O)NC(C)(C)C)Cc1cccc2c1OCCO2", "LdMetRS": 11.85, "Mtb heat-shock": -8.074}
{"compound": "O=C(O)C(F)(F)F.O=C(O)C(F)(F)F.[H][C@@]12CN(Cc3ccc(C)s3)CCC[C@]1(C(=O)O)CN(CCOC)C2", "Mtb heat-shock": -29.4}
{"compound": "CCC[C@@H]1CN(C(=O)c2cnc3ccccc3c2)C[C@H]1NS(C)(=O)=O", "LdMetRS": 15.57, "Mtb heat-shock": -32.67}
{"compound": "CCN1CCN(C(=O)c2ccc3c(c2)OCC(=O)N3)[C@H]2CS(=O)(=O)C[C@H]21", "LdMetRS": 12.81}
{"compound": "N#Cc1cccc(-c2ncnn2CC2(O)CCCCC2)c1", "LdMetRS": 10.56, "Mtb heat-shock": -14.83}
{"compound": "CC(C)n1cnnc1C1CCCN(C(=O)COCc2ccccc2)C1", "stereo": "stereo unspecified", "LdMetRS": 7.055, "Mtb heat-shock": -17.31}
{"compound": "Cc1cc(F)cc(S(=O)(=O)NCCCN2CCC(O)CC2)c1", "LdMetRS": -3.15, "Mtb heat-shock": 0.5819}
{"compound": "COc1cc2c(c(OC)c1OC)CCN(CCn1cncn1)CC2", "LdMetRS": 12.15, "Mtb heat-shock": -11.58}
{"compound": "CNS(=O)(=O)c1cccc(CNC(=O)c2c(C)nn(C)c2C)c1", "LdMetRS": 9.028, "Mtb heat-shock": -2.977}
{"compound": "CC(=O)NCc1ccc(C(=O)N2CCCCC2Cn2cccn2)o1", "stereo": "stereo unspecified", "LdMetRS": 6.667, "Mtb heat-shock": -12.22}
{"compound": "Cc1noc(C)c1CC(=O)N1CCCN(C)c2ccc(Cl)cc21", "LdMetRS": 17.12, "Mtb heat-shock": 15.76}
{"compound": "CC1CN(C(=O)NCc2cnn(-c3ccc(F)cc3F)c2)CCO1", "stereo": "stereo unspecified", "LdMetRS": 10.31, "Mtb heat-shock": -4.807}
{"compound": "Cc1cccc(CS(=O)(=O)CC(O)Cn2cccn2)c1", "stereo": "stereo unspecified", "LdMetRS": 12.64, "Mtb heat-shock": -1.915}
{"compound": "CCS(=O)(=O)N1CC[C@H](OC)[C@@H]1Cc1ccncc1", "LdMetRS": 3.03, "Mtb heat-shock": -0.4397}
{"compound": "OCC1(Cc2ccc(Cl)cc2)CCN(Cc2ccccc2O)CC1", "LdMetRS": 6.529, "Mtb heat-shock": 8.157}
{"compound": "CCc1cc(-c2ccnc3c2ccn3C)nc(N2CCOCC2)n1", "LdMetRS": 17.12, "Mtb heat-shock": 22.37}
{"compound": "COCCN(CCOC)C(=O)c1cn(C(C)(C)C)c2ncccc12", "LdMetRS": 14.17, "Mtb heat-shock": 20.52}
{"compound": "Cc1csc(-c2cccc(NC(=O)N3CCOCC3)c2)n1", "LdMetRS": 1.804, "Mtb heat-shock": 9.195}
{"compound": "COc1ccc(COCC(O)CNC(=O)c2ccc(C)c(F)c2)cc1", "stereo": "stereo unspecified", "LdMetRS": 16.91, "Mtb heat-shock": -2.052}

3 of the entries, repeated:

Cc1cc(F)cc(S(=O)(=O)NCCCN2CCC(O)CC2)c1 read LdMetRS: -3.15%; Mtb heat-shock: 0.5819%.
CCN1CCN(C(=O)c2ccc3c(c2)OCC(=O)N3)[C@H]2CS(=O)(=O)C[C@H]21 read LdMetRS: 12.81%.
O=C(NCCNC(=O)c1scnc1Cl)c1ccccc1 read LdMetRS: 18.88%; Mtb heat-shock: -11.09%.